For at least one compound, name, drawing or mass did not settle the structure.
What was measured:
[1] = tested on: acetyl-histone H3 and acetyl-tubulin in A549 lung cancer cells; test: Western blot of acetyl-histone H3 and acetyl-tubulin; assay type: cell-based, human; conditions: dose-dependent, FIG. 2
Protocol: FIG. 2 is a photo showing the effect of test compounds on acetylation of histone H3 and tubulin in A549 lung cancer cell lines. […] A549 cells were treated with the indicated doses of test compounds. Total cell lysates were prepared and subjected to SDS-PAGE using adequate percentage of polyacrylamide gels. Immunoblotting was performed using specific antibodies to evaluate the expression of different proteins.
Following treatment with test compounds, cells were lysed on ice. Total cell lysates were centrifuged at 13,000 rpm for 15 min at 4° C., and then subjected to SDS-PAGE using adequate percentage polyacrylamide gels. Immunoblotting was performed using specific antibodies to evaluate the expression of different proteins.
A549 lung cancer cells were treated with the test compound, and the expression of acetyl-histone H3 and acetyl-tubulin were analyzed by SDS-PAGE using immunoblotting.

[2] = tested on: HCT116 colorectal cancer cells; test: Cell viability (MTT) under normoxia or hypoxia, oxaliplatin resistance; assay type: cell-based; conditions: Lova-HA 1 μM plus oxaliplatin 5 μM
[3] = tested on: AOM/DSS-induced colitis-associated colorectal cancer; test: AOM/DSS colitis-associated colorectal cancer model, chemoprevention
[4] = tested on: AOM/DSS-induced colitis-associated colorectal cancer; test: AOM/DSS colitis-associated colorectal cancer model, treatment after AOM/DSS
[5] = oral 100 mg/kg, 5 days a week for 3 weeks after AOM/DSS

Row | Structure (SMILES) | acetylation of histone H3 and tubulin [1] | effect on hypoxia-induced oxaliplatin resistance [2] | histological examination of colon ([3]; 25 mg/kg oral) | histological examination of colon ([3]; 50 mg/kg oral) | number and size of tumors ([3]; 50 mg/kg oral) | bleeding and diarrhea (clinical symptoms) ([3]; oral, Lova-HA 25 or 50 mg/kg, lovastatin 50 mg/kg) | body weight loss after AOM/DSS ([3]; oral, Lova-HA 25 or 50 mg/kg, lovastatin 50 mg/kg, 5 days a week for 8 weeks) | number and size of tumors ([4]; 100 mg/kg oral) | AOM/DSS-induced weight loss [4, 5] | clinical symptoms [4, 5] | histological examination of colon ([4]; treatment after AOM/DSS)
1 | CCC(C)(C)C(=O)O[C@H]1C[C@@H](C)C=C2C=C[C@H](C)[C@H](CC[C@@H](O)C[C@@H](O)CC(=O)NO)[C@H]21 [Simva-HA, (3R,5R)-7-{(1S,2S,6R,8S,8aR)-Hexahydro-2,6-dimethyl-8-[2-dimethylbutyryloxy]naphthalenyl}-3,5-dihydroxy-N-hydroxyheptanamide] | promoted the acetylations of histone and tubulin |  |  |  |  |  |  |  |  |  | 
2 | CCC(C)C(=O)O[C@H]1C[C@@H](C)C=C2C=C[C@H](C)[C@H](CC[C@@H](O)C[C@@H](O)CC(=O)NO)[C@H]21 (stereo partly drawn) [Lova-HA] | promoted the acetylations of histone and tubulin | could overcome hypoxia-induced oxaliplatin resistance | ulceration and necrosis | normal mucosa | completely reduced the number and size of tumors | attenuated | could protect the weight loss | markedly reduced the number and size of tumors | could protect the weight loss | attenuated | surface tumor necrosis
